In doi:10.1101/2022.01.10.475683:
Results are given in words; binding and its absence hold for the method and conditions named. A result given as binding can be weak or reduced; the word gives no strength. For some assays here: In cells and extracts the contact can be indirect. For some assays here: Sequences can lack the tags named with a protein.

Key:
[1] = molecular target: T1, OsTPR1, full length, pGBKT7-OsTPR1 (rice) (UniProt Q5NBT9); assay: two-hybrid
T1 sequence: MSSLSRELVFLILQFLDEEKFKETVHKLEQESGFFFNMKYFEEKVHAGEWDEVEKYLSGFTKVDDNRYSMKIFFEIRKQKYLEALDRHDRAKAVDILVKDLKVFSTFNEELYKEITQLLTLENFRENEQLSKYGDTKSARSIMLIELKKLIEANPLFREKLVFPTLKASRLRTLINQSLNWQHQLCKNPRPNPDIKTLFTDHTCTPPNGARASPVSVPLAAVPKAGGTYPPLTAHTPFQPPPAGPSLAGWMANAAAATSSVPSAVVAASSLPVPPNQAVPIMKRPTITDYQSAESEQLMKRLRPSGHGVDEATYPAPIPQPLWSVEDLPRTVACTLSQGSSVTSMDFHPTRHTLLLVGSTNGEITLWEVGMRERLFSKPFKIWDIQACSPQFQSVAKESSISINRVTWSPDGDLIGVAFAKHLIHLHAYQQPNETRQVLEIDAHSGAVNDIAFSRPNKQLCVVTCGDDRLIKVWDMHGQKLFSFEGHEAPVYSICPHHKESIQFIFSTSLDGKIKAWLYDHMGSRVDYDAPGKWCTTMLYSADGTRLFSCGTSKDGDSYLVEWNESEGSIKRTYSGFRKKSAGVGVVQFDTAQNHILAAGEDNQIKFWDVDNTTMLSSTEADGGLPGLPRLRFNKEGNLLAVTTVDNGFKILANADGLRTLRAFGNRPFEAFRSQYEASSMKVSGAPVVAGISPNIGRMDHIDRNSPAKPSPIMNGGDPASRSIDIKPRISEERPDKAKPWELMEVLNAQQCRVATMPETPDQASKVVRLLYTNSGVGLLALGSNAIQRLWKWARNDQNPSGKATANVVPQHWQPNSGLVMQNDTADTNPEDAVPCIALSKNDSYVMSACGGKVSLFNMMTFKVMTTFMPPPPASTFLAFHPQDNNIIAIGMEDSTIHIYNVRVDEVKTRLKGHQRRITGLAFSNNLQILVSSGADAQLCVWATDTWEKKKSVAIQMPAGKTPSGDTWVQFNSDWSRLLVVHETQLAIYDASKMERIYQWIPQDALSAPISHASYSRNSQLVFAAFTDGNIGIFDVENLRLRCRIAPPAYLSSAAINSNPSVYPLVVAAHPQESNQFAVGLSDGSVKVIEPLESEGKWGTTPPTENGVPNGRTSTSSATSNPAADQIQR

[2] = molecular target: T2, OsTPR3, full length, pGBKT7-OsTPR3 (rice) (UniProt Q10NY2); assay: two-hybrid
T2 sequence: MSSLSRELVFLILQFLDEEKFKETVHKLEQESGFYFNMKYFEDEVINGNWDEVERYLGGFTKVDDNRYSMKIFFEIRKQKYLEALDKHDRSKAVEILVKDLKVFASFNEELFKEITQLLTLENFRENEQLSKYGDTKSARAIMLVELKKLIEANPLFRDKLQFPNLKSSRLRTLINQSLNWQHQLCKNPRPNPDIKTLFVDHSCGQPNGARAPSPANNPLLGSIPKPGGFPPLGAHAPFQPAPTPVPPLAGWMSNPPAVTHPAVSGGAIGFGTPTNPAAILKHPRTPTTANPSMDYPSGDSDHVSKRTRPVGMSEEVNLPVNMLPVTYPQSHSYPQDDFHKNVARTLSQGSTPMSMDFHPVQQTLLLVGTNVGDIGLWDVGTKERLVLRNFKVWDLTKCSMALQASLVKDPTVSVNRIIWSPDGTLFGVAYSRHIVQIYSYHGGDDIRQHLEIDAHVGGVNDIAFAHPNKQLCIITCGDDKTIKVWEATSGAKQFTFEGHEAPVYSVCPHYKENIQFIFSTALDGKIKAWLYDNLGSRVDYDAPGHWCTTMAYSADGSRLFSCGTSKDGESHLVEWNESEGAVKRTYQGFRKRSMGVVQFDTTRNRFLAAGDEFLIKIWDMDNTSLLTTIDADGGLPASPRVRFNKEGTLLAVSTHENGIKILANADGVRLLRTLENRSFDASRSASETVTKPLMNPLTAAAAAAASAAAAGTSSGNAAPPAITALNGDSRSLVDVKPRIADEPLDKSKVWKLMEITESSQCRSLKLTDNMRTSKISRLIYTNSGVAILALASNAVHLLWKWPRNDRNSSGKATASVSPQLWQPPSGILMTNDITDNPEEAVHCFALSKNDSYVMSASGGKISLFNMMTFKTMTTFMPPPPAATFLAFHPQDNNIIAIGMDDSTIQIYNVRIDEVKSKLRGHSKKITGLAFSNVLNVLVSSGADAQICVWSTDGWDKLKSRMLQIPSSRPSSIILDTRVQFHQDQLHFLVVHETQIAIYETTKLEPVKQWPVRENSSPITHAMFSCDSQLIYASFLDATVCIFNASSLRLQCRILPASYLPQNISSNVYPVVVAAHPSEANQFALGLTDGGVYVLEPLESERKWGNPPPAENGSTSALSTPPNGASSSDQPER

nYFP-OsTPR1 (rice) = molecular target: T3, nYFP-OsTPR1 (rice) (UniProt Q5NBT9); assay: split reporter
T3 sequence: T1 sequence

nYFP-OsTPR3 (rice) = molecular target: T4, nYFP-OsTPR3 (rice) (UniProt Q10NY2); assay: split reporter
T4 sequence: T2 sequence

binding [1] | binding [2] | Substance | binding (nYFP-OsTPR1 (rice)) | binding (nYFP-OsTPR3 (rice))
binds | binds | mutated WL1 protein (rice) |  | 
binds | binds | N-WL1 (N-terminal EAR motif of WL1), pGADT7-N-WL1 (rice) (domain or fragment) |  | 
binds | binds | C-WL1 (C-terminal EAR motif of WL1), pGADT7-C-WL1 (rice) (domain or fragment) |  | 
 |  | WL1-cYFP (rice) | binds | binds
